Here are results for 42 sequences from PMC7819943, “Rice protein-binding microarrays: a tool to detect cis-acting elements near promoter regions in rice”.

Chains of the proteins cited; added tags and fusions are not shown.
UniProt Q0JBA9, entry or part of it: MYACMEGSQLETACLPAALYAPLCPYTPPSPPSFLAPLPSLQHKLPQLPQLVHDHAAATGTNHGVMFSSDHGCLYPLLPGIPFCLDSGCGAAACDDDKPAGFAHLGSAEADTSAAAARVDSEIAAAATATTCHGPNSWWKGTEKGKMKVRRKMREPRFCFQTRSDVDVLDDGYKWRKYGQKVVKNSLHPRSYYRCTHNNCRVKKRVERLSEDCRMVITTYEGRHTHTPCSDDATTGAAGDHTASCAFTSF

The other results are listed elsewhere or left out.

This assay concerns the target OsWRKY34 (Oryza sativa, UniProt Q0JBA9 1-250). Briefly: protein-binding microarray (RPBM); PBS, 2% BSA, 51.3 ng/ul salmon testes DNA, 50 uM zinc acetate, 200 nM TF, 25 C, 1 h; high values mean tight binding. As to conditions: protein: recombinant; tags: N-terminal polyhistidine and DsRed monomer fusion (pET32a); label: CyDye5-dUTP incorporated in the synthesized complementary strand; 3' TTTTT single-stranded linker to array surface; dsDNA, one strand shown. The essentials: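 Ni–NTA purification followed expression in E. coli BL21-CodonPlus of transcription factors fused N-terminally to a polyhistidine tag and DsRed. At 200 nM in PBS with 2% BSA, salmon testes DNA and 50 µM zinc acetate, the protein was incubated for 1 h at 25 °C with a custom Agilent array that had been primer-extended with Cy5-dUTP and blocked with 2% BSA. After washing, the array was read on an Axon 4000B scanner. The binding signal is per-feature fluorescence intensity in arbitrary units.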
With “ACCCTATGGATTTTTGTGCGCTTATATACCACTTCTACTTCGGAGTCACCTAGTGCAG”, the binding signal was 9910 fluorescence intensity (a.u.). Consider “CAGCCACGCCGCCGCGTGCGCCTCTCGTTTTTCCTCTTCTCGGAGTCACCTAGTGCAG”, for which the binding signal is 8040 fluorescence intensity (a.u.). For “CGTACGAGACATTTGCTTATCTCATACTCCCTCCGTCCTACGGAGTCACCTAGTGCAG”, the binding signal is 10600 fluorescence intensity (a.u.). “TCAGCCGACCTTGCCGTCACACATTAACTGTTCGCTCAGACGGAGTCACCTAGTGCAG”: the binding signal was 8730 fluorescence intensity (a.u.). For “CATTTGCATCATAGTGTTCAGCTGTTTCTCTCCCTGCTGCCGGAGTCACCTAGTGCAG”, the binding signal was 8750 fluorescence intensity (a.u.).

Turning to “AGACAATTTTGTACTGTTGTACCACATGCATCTTGTGCCCCGGAGTCACCTAGTGCAG”, the binding signal was 8210 fluorescence intensity (a.u.). In the case of “GCATGGGTCGGGCAGCAGATGGGGAGGTGAGAGTGGGAAACGGAGTCACCTAGTGCAG”, the binding signal was 10400 fluorescence intensity (a.u.). On to “ATCGCTCACAGGTTATGTTTTCACTATTGGAGGATGTGCTCGGAGTCACCTAGTGCAG”, for which the binding signal is 8140 fluorescence intensity (a.u.).

On to “CATCGCCGTCGCCTCTGCCTCCGCCTGGAAGGATGACCTCCGGAGTCACCTAGTGCAG”, for which the binding signal was 8610 fluorescence intensity (a.u.). Take “GAACCCTGTATACATTAGCTAGTACATAACATACCTTCATCGGAGTCACCTAGTGCAG”: the binding signal was 8250 fluorescence intensity (a.u.). “CGGAGTGTTTTTAGCTTCCTCTCCAATCTCTGTATTTCTTCGGAGTCACCTAGTGCAG”: the binding signal was 10300 fluorescence intensity (a.u.). For “CCTGACTTCCTACACCTCTGTATTGGAACTATTACGACCACGGAGTCACCTAGTGCAG”, the binding signal is 8040 fluorescence intensity (a.u.). In the case of “ATTCTCTACTGTAATTCACATGCTAATCTTCCAGCCACACCGGAGTCACCTAGTGCAG”, the binding signal is 9280 fluorescence intensity (a.u.). Turning to “AGTAGTATAGGAGGTAGTAGTAGTAGTAGTAGTAGGTACTCGGAGTCACCTAGTGCAG”, the binding signal was 8610 fluorescence intensity (a.u.).

On to “GCAAAATCCTCCTCCCGATCTCCACCACCACTTTCCCATTCGGAGTCACCTAGTGCAG”, for which the binding signal was 8740 fluorescence intensity (a.u.). For “AATTATTTAATTTCTCGGTGGCTCGCATTTCCACTCTCTCCGGAGTCACCTAGTGCAG”, the binding signal is 12000 fluorescence intensity (a.u.).

“AGCAGCATTTCCACTCACTTTTCCGGTTTCCATCGCCCGCCGGAGTCACCTAGTGCAG”: the binding signal is 10600 fluorescence intensity (a.u.).

Turning to “TCGCCGGATTTTTTTTTCTCCCGATCGGTGGGGAGGGCTCCGGAGTCACCTAGTGCAG”, the binding signal was 11200 fluorescence intensity (a.u.). Consider “ATTTTATAGGTTTGTAGTATATGTTCTGTTGAAGTTGAACCGGAGTCACCTAGTGCAG”, for which the binding signal was 9740 fluorescence intensity (a.u.). For the sequence “GCAAGGTCTCTTTCACCAAGTTCTGTACTGTTTATTTTTCCGGAGTCACCTAGTGCAG”, the binding signal is 10800 fluorescence intensity (a.u.). In the case of “AGTTTCTATTATTTTAGGGTGGTGCTCTATGCTTTTCTCACGGAGTCACCTAGTGCAG”, the binding signal was 8740 fluorescence intensity (a.u.).

As to “AGTATCCTTCTCATATCATTTGTTTCTACCTAGGCTTTTGCGGAGTCACCTAGTGCAG”, the binding signal is 9980 fluorescence intensity (a.u.). In the case of “GCCCGATCAGCTATTGGTCATTTAACTCTGTTTCCTTTATCGGAGTCACCTAGTGCAG” it was 13200 fluorescence intensity (a.u.). Consider “TATCTGTCAGCAATGTTTCGTCCGTTGGATGTTGATCCCACGGAGTCACCTAGTGCAG”, for which the binding signal is 8050 fluorescence intensity (a.u.).

For the sequence “TATGCGCTCCCAACTTCCATGTGTCCATGTCCATGTCGCGCGGAGTCACCTAGTGCAG”, the binding signal was 9530 fluorescence intensity (a.u.).

Consider “GCATCCTGTACTTTCAATTTTTCCTGTGTCATCCAATAAACGGAGTCACCTAGTGCAG”, for which the binding signal was 8100 fluorescence intensity (a.u.). Turning to “TTCCATGACTGTTTTGTTCAAGTTAGTTTCCTTCATCCATCGGAGTCACCTAGTGCAG”, the binding signal is 8400 fluorescence intensity (a.u.). On to “GCTCGGTGTTGCCCCACTATACGAGGGTATTGTCTCATCGCGGAGTCACCTAGTGCAG”, for which the binding signal was 8070 fluorescence intensity (a.u.). As to “TCCCTGTCGCCTCACTGTTTCACGCGTCCTGGAAGCAAGCCGGAGTCACCTAGTGCAG”, the binding signal was 8790 fluorescence intensity (a.u.). For the sequence “GGCCCATTATTTATCTCACTCTCTTTCTAGCTCGGTTTATCGGAGTCACCTAGTGCAG”, the binding signal was 15000 fluorescence intensity (a.u.).

Consider “CCCCACGTGGTCCTCGCGCCCATTATCCGGGCCCACACGTCGGAGTCACCTAGTGCAG”, for which the binding signal is 9920 fluorescence intensity (a.u.).

Turning to “AACTGTACAATTGTTTTTTTTCACATTTAATGTTCCATACCGGAGTCACCTAGTGCAG”, the binding signal was 11400 fluorescence intensity (a.u.). As to “CCATTGGATGTTAGCCTCTTACCTTGCACGCAACTTGTTTCGGAGTCACCTAGTGCAG”, the binding signal was 9010 fluorescence intensity (a.u.). Take “TTGACCTGCTAGCCTTTTTTTTTTCGCAAATCTATTCCTGCGGAGTCACCTAGTGCAG”: the binding signal was 8440 fluorescence intensity (a.u.). For “GGCTATACTGTTAAACTTGCTCTTTGCTCCTGTAATATCACGGAGTCACCTAGTGCAG”, the binding signal is 8980 fluorescence intensity (a.u.). On to “ATATTCTAATACTACACTCGGTTTTAGCTCTCGAAATCAGCGGAGTCACCTAGTGCAG”, for which the binding signal was 10000 fluorescence intensity (a.u.). As for “CGTGTGGTTTGCTTTTTTTTTTCCCGACTATGGTCTTCCACGGAGTCACCTAGTGCAG”, the binding signal was 14600 fluorescence intensity (a.u.). Consider “GTTTTATTGTCACCCATTCCCCGATTCTTTTGTCAAATTTCGGAGTCACCTAGTGCAG”, for which the binding signal was 11000 fluorescence intensity (a.u.).

Regarding “CACTTCACTTTTCTTCTGTCCCCTTTTTCCAGTTGTAGCACGGAGTCACCTAGTGCAG”, the binding signal was 9230 fluorescence intensity (a.u.).

“GAATTATTGATATATTTGTAGCTTATTGTTTCTTTGTTTACGGAGTCACCTAGTGCAG”: the binding signal was 8570 fluorescence intensity (a.u.). For “CTCATCGCTTTGTTCTCATCCCTTGTCGATTTTCTTTGACCGGAGTCACCTAGTGCAG”, the binding signal was 16000 fluorescence intensity (a.u.). In the case of “TTAACTTTTTAGTACGTGTTTGACCATTCGTATTATTCAACGGAGTCACCTAGTGCAG” it was 9020 fluorescence intensity (a.u.).
